Measurements reported in patent publication US8968703B2, “13C-MR detection using hyperpolarised 13C-fructose” (GE Healthcare Limited, priority 2009, dated 2015).

Tested on: TRAMP mouse prostate tumor
Experiment: In vivo 13C 3D MRSI in transgenic model of prostate cancer (TRAMP)
Settings: diffuse prostate tumor

O=[13C](CO)[C@@H](O)[C@H](O)[C@H](O)CO [fructose, [2-^13C]-fructose]
Ratio of composite furanose resonance to β-fructopyranose resonance, tumor vs surrounding tissue: increased relative to the surrounding tissue
Composite β-fructofuranose and β-fructofuranose-6-phosphate resonance, tumor vs surrounding benign tissues (80 mM hyperpolarized fructose injection): higher in the regions of diffuse tumor
